Data as given in publication PMC8567046.
Results are given in words; binding and its absence hold for the method and conditions named. In cells and extracts the contact can be indirect. Some binding calls cover weakened binding; strength is not graded here. Sequences can lack the tags named with a protein.

Sequences of proteins named here, by UniProt entry; tags and fusion partners are left off.
UniProt Q9NRG4: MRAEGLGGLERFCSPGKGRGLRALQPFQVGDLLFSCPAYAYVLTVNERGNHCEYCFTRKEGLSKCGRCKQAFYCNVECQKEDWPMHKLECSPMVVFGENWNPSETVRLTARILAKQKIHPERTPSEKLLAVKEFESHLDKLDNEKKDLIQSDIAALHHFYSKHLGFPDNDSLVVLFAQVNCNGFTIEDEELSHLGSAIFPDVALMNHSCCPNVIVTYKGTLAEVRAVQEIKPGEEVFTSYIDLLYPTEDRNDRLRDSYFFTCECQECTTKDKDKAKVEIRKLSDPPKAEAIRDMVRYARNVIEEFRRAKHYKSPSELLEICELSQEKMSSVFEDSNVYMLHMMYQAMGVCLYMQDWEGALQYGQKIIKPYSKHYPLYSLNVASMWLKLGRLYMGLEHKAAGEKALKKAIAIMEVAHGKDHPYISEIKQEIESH

T1: His-TRAF2 (UniProt Q12933)
T1 sequence: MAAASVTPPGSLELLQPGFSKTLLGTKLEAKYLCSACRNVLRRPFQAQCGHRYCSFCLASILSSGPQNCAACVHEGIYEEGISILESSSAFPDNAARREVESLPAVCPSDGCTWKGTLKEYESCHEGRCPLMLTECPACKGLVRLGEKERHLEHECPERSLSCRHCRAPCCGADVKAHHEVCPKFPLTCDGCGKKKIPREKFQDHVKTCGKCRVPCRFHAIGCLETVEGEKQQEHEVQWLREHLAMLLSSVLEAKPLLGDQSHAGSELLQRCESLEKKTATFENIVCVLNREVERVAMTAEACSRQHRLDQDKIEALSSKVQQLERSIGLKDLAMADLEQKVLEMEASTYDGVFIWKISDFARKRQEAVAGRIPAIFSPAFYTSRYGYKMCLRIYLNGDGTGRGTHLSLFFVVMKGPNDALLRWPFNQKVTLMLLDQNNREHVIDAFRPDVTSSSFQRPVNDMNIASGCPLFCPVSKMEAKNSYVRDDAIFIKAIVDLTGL

B1: Myc-SMYD3 (enzyme, UniProt Q9H7B4 1-428)
chain: MEPLKVEKFATAKRGNGLRAVTPLRPGELLFRSDPLAYTVCKGSRGVVCDRCLLGKEKLMRCSQCRVAKYCSAKCQKKAWPDHKRECKCLKSCKPRYPPDSVRLLGRVVFKLMDGAPSESEKLYSFYDLESNINKLTEDKKEGLRQLVMTFQHFMREEIQDASQLPPAFDLFEAFAKVICNSFTICNAEMQEVGVGLYPSISLLNHSCDPNCSIVFNGPHLLLRAVRDIEVGEELTICYLDMLMTSEERRKQLRDQYCFECDCFRCQTQDKDADMLTGDEQVWKEVQESLKKIEELKAHWKWEQVLAMCQAIISSNSERLPDINIYQLKVLDCAMDACINLGLLEEALFYGTRTMEPYRIFFPGSHPVRGVQVMKVGKLQLHQGMFPQAMKNLRLAFDIMRVTHGREHSLIEDLILLLEECDANIRAS
B2: Myc-SMYD4 (enzyme, UniProt Q8IYR2 1-804)
chain: MDLPVDEWKSYLLQKWASLPTSVQVTISTAETLRDIFLHSSSLLQPEDELFLKRLSKGYLVGKDSDAPLFYREEGNKKFQEKDYTGAAVLYSKGVSHSRPNTEDMSLCHANRSAALFHLGQYETCLKDINRAQTHGYPERLQPKIMLRKAECLVALGRLQEASQTISDLERNFTATPALADVLPQTLQRNLHRLKMKMQEKDSLTESFPAALAKTLEDAALREENEQLSNASSSIGLCVDPLKGRCLVATKDILPGELLVQEDAFVSVLNPGELPPPHHGLDSKWDTRVTNGDLYCHRCLKHTLATVPCDGCSYAKYCSQECLQQAWELYHRTECPLGGLLLTLGVFCHIALRLTLLVGFEDVRKIITKLCDKISNKDICLPESNNQVKTLNYGLGESEKNGNIVETPIPGCDINGKYENNYNAVFNLLPHTENHSPEHKFLCALCVSALCRQLEAASLQAIPTERIVNSSQLKAAVTPELCPDVTIWGVAMLRHMLQLQCNAQAMTTIQHTGPKGSIVTDSRQVRLATGIFPVISLLNHSCSPNTSVSFISTVATIRASQRIRKGQEILHCYGPHKSRMGVAERQQKLRSQYFFDCACPACQTEAHRMAAGPRWEAFCCNSCGAPMQGDDVLRCGSRSCAESAVSRDHLVSRLQDLQQQVRVAQKLLRDGELERAVQRLSGCQRDAESFLWAEHAVVGEIADGLARACAALGDWQKSATHLQRSLYVVEVRHGPSSVEMGHELFKLAQIFFNGFAVPEALSTIQKAEEVLSLHCGPWDDEIQELQKMKSCLLDLPPTPVGPAL
B3: Myc-SMYD5 (enzyme, UniProt Q6GMV2 1-418)
chain: MAASMCDVFSFCVGVAGRARVSVEVRFVSSAKGKGLFATQLIRKGETIFVERPLVAAQFLWNALYRYRACDHCLRALEKAEENAQRLTGKPGQVLPHPELCTVRKDLHQNCPHCQVMYCSAECRLAATEQYHQVLCPGPSQDDPLHPLNKLQEAWRSIHYPPETASIMLMARMVATVKQAKDKDRWIRLFSQFCNKTANEEEEIVHKLLGDKFKGQLELLRRLFTEALYEEAVSQWFTPDGFRSLFALVGTNGQGIGTSSLSQWVHACDTLELKPQDREQLDAFIDQLYKDIEAATGEFLNCEGSGLFVLQSCCNHSCVPNAETSFPENNFLLHVTALEDIKPGEEICISYLDCCQRERSRHSRHKILRENYLFVCSCPKCLAEADEPNVTSEEEEEEEEEEEGEPEDAELGDEMTDV

Molecular target: T1, His-TRAF2
Experiment: co-IP; 293T cells transfected with His-TRAF2 and Myc-SMYD (1-5) plasmids; Co-IP with antibodies against His or Myc

| binding | Molecule |
| --- | --- |
| binds | Myc-SMYD2 (from UniProt Q9NRG4 1-433) (enzyme) |
| no binding | B1 |
| no binding | B2 |
| no binding | B3 |
